These are yes or no findings as the source states them, for the method shown. Binding seen in cells or lysates may run through a third protein. Some entries that bind do so weakly or less than the wild type.
Legend:
Assay in all cases: co-IP; immunoprecipitation (1.5 h, Pansorbin) with anti-CBL, anti-CBLB, anti-CSK, anti-CRKL or anti-p85-PI3K from lysates (n-dodecyl-β-maltoside) of expanded mouse CD4+ T cells, unstimulated or stimulated 1 min with anti-CD3 + anti-CD4; immunoblot; isotype control; cells of wild-type, Cblb-/-, Cbl-/- and Cd5-/- mice
[1] = biological target: CSK (mouse (endogenous in CD4+ T cells)) (UniProt P41241)
[2] = biological target: CRKL (mouse (endogenous in CD4+ T cells)) (UniProt P47941)
[3] = biological target: PIK3R2 (mouse (endogenous in CD4+ T cells)) (UniProt O08908)

Chains of the proteins cited; added tags and fusions are not shown.
UniProt P41241: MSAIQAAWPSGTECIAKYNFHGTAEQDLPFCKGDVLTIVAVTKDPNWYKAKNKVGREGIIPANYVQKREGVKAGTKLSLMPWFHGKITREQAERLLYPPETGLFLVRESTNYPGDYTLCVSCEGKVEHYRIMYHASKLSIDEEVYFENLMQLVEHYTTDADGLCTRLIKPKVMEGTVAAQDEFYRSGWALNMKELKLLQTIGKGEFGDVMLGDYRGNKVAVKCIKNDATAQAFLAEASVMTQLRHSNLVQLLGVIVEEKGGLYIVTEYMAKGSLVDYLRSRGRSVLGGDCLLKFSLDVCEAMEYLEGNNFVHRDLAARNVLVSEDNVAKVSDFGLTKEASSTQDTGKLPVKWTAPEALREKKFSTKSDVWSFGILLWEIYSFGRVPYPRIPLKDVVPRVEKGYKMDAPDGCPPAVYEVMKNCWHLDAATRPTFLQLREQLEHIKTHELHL
UniProt P47941: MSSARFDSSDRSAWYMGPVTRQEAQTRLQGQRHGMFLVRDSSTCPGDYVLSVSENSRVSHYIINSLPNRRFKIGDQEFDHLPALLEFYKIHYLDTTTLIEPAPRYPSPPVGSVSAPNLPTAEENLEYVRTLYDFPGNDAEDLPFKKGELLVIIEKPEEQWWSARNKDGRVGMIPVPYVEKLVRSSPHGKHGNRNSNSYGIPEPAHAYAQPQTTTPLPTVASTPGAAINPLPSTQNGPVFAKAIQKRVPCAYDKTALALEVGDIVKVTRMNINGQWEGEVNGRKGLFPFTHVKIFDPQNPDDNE
UniProt O08908: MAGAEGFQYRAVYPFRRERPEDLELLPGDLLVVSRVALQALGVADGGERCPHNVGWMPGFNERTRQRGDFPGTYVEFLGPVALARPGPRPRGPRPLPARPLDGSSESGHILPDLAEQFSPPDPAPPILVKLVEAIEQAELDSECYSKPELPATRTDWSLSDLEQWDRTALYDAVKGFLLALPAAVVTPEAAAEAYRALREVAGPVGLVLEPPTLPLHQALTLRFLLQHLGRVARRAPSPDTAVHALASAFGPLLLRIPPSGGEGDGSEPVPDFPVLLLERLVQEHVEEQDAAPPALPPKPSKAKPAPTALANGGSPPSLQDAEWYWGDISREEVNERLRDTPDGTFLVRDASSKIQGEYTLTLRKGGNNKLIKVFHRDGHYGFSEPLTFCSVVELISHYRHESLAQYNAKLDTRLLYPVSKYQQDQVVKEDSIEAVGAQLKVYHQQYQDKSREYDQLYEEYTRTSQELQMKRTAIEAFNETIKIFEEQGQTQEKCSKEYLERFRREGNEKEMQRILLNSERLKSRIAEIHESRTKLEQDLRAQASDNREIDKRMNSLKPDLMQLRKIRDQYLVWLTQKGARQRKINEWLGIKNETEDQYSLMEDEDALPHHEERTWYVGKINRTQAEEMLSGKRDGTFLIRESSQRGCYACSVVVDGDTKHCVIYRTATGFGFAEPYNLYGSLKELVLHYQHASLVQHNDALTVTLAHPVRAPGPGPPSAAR
UniProt Q3TTA7: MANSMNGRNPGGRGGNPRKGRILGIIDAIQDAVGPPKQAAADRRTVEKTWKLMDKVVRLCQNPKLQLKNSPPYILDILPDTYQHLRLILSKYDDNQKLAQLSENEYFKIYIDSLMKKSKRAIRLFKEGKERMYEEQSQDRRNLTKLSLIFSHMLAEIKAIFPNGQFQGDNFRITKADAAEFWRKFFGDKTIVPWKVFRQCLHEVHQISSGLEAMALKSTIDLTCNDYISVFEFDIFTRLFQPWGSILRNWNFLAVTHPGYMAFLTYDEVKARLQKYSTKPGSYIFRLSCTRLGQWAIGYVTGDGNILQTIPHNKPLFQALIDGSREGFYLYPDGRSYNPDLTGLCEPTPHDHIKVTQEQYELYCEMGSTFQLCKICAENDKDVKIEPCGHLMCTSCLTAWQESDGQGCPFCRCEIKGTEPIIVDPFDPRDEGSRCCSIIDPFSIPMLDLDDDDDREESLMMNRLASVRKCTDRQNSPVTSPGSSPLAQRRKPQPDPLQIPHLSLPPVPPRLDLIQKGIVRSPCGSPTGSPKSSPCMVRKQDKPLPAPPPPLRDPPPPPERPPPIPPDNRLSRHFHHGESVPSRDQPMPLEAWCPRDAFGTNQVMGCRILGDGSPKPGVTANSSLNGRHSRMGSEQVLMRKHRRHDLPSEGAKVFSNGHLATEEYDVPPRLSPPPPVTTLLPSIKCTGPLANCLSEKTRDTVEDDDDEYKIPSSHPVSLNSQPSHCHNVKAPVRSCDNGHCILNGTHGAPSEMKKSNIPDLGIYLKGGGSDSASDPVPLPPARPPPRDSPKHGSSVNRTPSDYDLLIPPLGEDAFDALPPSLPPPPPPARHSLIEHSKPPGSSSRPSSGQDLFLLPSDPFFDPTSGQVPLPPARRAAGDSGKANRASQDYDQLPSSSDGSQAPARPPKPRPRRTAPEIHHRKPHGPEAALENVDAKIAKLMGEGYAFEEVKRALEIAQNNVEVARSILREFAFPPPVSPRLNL
UniProt P42337: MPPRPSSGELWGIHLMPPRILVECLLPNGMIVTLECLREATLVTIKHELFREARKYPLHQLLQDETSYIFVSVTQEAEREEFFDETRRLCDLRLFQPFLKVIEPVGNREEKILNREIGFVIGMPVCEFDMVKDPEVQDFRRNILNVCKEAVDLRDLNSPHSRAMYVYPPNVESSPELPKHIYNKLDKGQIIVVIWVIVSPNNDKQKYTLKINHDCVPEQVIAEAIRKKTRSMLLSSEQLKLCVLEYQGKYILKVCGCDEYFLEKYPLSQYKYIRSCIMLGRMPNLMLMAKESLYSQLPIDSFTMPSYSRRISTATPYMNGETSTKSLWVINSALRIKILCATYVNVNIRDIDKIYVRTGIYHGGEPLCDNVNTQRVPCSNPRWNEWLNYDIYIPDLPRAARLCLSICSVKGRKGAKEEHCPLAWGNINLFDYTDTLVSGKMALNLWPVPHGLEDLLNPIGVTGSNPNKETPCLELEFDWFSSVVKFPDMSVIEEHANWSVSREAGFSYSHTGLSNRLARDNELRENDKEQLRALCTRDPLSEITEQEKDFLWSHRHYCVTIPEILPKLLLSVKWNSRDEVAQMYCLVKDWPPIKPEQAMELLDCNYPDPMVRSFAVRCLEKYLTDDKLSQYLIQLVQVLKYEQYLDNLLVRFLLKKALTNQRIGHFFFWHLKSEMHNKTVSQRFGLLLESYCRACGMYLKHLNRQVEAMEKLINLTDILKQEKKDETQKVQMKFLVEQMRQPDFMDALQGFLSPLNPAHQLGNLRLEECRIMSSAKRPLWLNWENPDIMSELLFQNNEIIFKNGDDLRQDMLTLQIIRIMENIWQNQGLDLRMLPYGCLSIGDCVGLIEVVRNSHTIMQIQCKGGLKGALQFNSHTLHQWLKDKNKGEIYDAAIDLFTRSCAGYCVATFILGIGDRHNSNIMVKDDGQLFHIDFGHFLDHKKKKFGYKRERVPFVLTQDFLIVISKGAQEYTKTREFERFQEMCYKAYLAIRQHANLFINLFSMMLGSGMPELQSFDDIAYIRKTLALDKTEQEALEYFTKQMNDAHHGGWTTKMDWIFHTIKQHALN

| binding [1] | binding [2] | binding [3] | Substance |
| --- | --- | --- | --- |
| binds | – | – | CBLB (from UniProt Q3TTA7 1-982) |
| no binding | – | – | CRKL (from UniProt P47941 1-303) |
| binds | binds | binds | PIK3CA (from UniProt P42337 1-1068) (enzyme) |
| binds | binds | – | PIK3R2 (from UniProt O08908 1-722) |

Reference: article PMC4965873
